Test results reported in article PMC10163288.
This is one part of the list.

B1: il10ra_site1_sap_20_mot_HHH_b2_07440_af2_000000021_0001_1_18_H_._HHH_b1_07372_0001_0000200039_0000001_1_0001_af2pred_0001 (protein)
chain: SSSSDEELEEEIEELLREVEELGNPLIAESIRRLLEDFRQHGDPDLLELAREATELARKAGSSSS
B2: il10ra_site1_sap_15_mot_HHH_b2_05686_000000041_0001_1_18_H_._HHH_b1_05100_af2_0001_0000100001_0000001_0_0001 (protein)
chain: SSSSDEEERLKELEEEIKEAIENNDTHEALHLVYELVRLAAELNDEEVLELAQELIKEVTSSSSS
B3: il10ra_site1_sap_21_mot_HHH_b2_07569_000000265_0001_38_56_H_._HHH_b2_01727_0001_0000300026_0000002_0_0001 (protein)
chain: SSSSYEKVKEALREAVELQENGNPEEAQKLLERLLEELEEEGDWATLKAVEHLLKLVEQRSSSSS
B4: il10ra_site1_normal_mot_HHH_b2_03568_000000058_0001_1_19_H_._HHH_b2_03434_0001_0000200026_0000001_0 (protein)
chain: SSSSDEAYELAREAIKEIKRLFEEGNKEEAEEFAEEVREQLEKLGNPAAVFAIEHLIRRLSSSSS
B5: il10ra_site1_normal_mot_HHH_b2_01447_af2_000000258_0001_1_20_H_._HHH_b2_04530_0001_0000500037_0000001_1_af2pred_0001 (protein)
chain: SSSSNEDSERVIELIRLVAELEREGDKEEAEEVLREAEEIAEENNNLVLRASLEHLRRLLSSSSS
B6: il10ra_site1_normal_mot_HHH_b2_08186_000000021_0001_43_56_H_._HHH_b2_03966_af2_0001_0000100002_0000002_0 (protein)
chain: SSSSDEEKERIEELLEEARERYEEGDPERVRELLLEALQLAYRIQDPELLQEIWELLKELSSSSS
B7: il10ra_site1_sap_16_mot_HHH_b1_01754_af2_000000279_0001_1_18_H_._HHH_b2_04217_af2_0001_0000300007_0000001_0_0001 (protein)
chain: SSSSDVEEEVKELLEEARELAEKGNPREAIKLLARATRLALKAGDAELLQEVWRVIKELASSSSS
B8: il10ra_site1_normal_mot_8756ee2cf497b5429c717dfc0c0bcfd6_0001_000000186_0001_1_13_H_._HHH_b2_06282_af2_0001_0000100003_0000001_0_af2pred_0001 (protein)
chain: SSSSSEIERLYELARRAAELIHEGDREEAREVVEEARELAEELNNLAARAVLEFLEKHINSSSSS
B9: il10ra_site1_normal_mot_HHH_b2_02337_000000026_0001_38_52_H_._HHH_b2_02614_0001_0000100001_0000001_0 (protein)
chain: SSSSSEEEEESKRLLRELEELLEEGDEERFIQVAQRAAQFAFERSDQELLRAIWELVKKLSSSSS
B10: il10ra_site1_sap_22_mot_HHH_b1_05185_000000011_0001_22_39_H_._HHH_b2_01732_0001_0000200022_0000002_0_0001_af2pred_0001 (protein)
chain: SSSDEERAEELRKEIEELLKRGDDEEAEELLEELLRLAAHLRDPELSYAALRLFALLTQLHSSSS
B11: il10ra_site1_sap_16_mot_HHH_b1_04708_000000195_0001_1_19_H_._HHH_b1_03229_0001_0000400029_0000001_0_0001 (protein)
chain: SSSSDEEEERIRELLEQVEELRKEGDEREAVRLLQEAVQLAYRLKDAELLREIWRLAEEIGSSSS
B12: il10ra_site1_sap_12_mot_HHH_b2_05591_000000091_0001_1_20_H_._8753768fdb24d6d44452682509039a45_0001_1_af2_0001_0000100001_0000002_0_0001 (protein)
chain: SSSSDMKEELARALERIIKQALENGDEESARFLLEALEMLAEELNDPELRELVEELRERLDSSSS
B13: il10ra_site1_sap_35_mot_HHH_b1_07527_000000076_0001_1_15_H_._HHH_b1_03840_af2_0001_0000300016_0000001_0_0001 (protein)
chain: SSSSDELTQEIYELIRELVEAALDGDHERVEELYEEIRELIEEAGNRLMEYQLEFAYRRAQSSSS
B14: il10ra_site1_normal_mot_HHH_b1_02708_af2_000000019_0001_23_39_H_._HHH_b2_02879_af2_0001_0000300013_0000001_0 (protein)
chain: SSSSDEEQRVAELLFRVVRLFAEGNPEEAEKVLEEAKRLAEELGDEELERYVEIAENFVRSSSSS
B15: il10ra_site1_normal_mot_HHH_b2_07569_000000265_0001_38_56_H_._HHH_b2_06896_0001_0000200010_0000001_0 (protein)
chain: SSSSSSEEEEEVEELLEEAKQIPDPEERARVLAEALRVAFEGQNPELVQLVWKVVKELFSSSSSS
B16: il10ra_site1_normal_mot_HHH_b1_03262_af2_000000181_0001_43_57_H_._HHH_b2_01783_0001_0000200010_0000001_0_af2pred_0001 (protein)
chain: SSSSDRDEEAVKRALRLARLAAENGDEEAVKFLLKAAKELAERANDPELERLVEEVIEELSSSSS
B17: il10ra_site1_normal_mot_HHH_b1_04940_000000219_0001_1_18_H_._HHH_b1_08156_0002_0000300031_0000001_0_af2pred_0001 (protein)
chain: SSSSDEIEKSLERLLEALRHAIELGDEERAELAIKDIQHTAELAKDEEVQELVERLREELESSSS
B18: il10ra_site1_normal_mot_HHH_b1_05357_000000034_0001_23_39_H_._HHH_b1_06984_af2_0002_0000100005_0000001_0_af2pred_0001 (protein)
chain: SSSSDRVEELLEEAKEAAERGDKHEAAYLLIRAFALANRLGDPELRELVEEVAQEVLELLSSSSS
B19: il10ra_site1_normal_mot_HHH_b2_03183_af2_000000055_0001_40_56_H_._HHH_b1_04876_0001_0000200022_0000001_0 (protein)
chain: SSSSSEELRELAEAALRLAEQLIEFGDPRAVRFLEESLEKLSKEAKDPEIEEILEEVQELLSSSS

target: il10ra, Q13651; assay: yeast display titration

Binder	apparent Kd
B1	inactive: no binding seen
B2	inactive: no binding seen
B3	inactive: no binding seen
B4	inactive: no binding seen
B5	inactive: no binding seen
B6	inactive: no binding seen
B7	inactive: no binding seen
B8	inactive: no binding seen
B9	inactive: no binding seen
B10	inactive: no binding seen
B11	inactive: no binding seen
B12	inactive: no binding seen
B13	inactive: no binding seen
B14	inactive: no binding seen
B15	inactive: no binding seen
B16	inactive: no binding seen
B17	inactive: no binding seen
B18	inactive: no binding seen
B19	inactive: no binding seen

Nothing new here: an excerpt of the list.
Binder	apparent Kd
B2	inactive: no binding seen
B3	inactive: no binding seen
